Assay results published in article PMC7082753, “Hazards of Using Masking Protocols When Performing Ligand Binding Assays: Lessons From the Sigma-1 and Sigma-2 Receptors” (Frontiers in Pharmacology, 2020).
Several values for one entry are separate records, joined by “and”; a condition that tells them apart may be missing. Identical values can stand only once.

System: sigma receptors
Assay: Saturation binding of pan-sigma ligand [³H] DTG to MDA-MB-468 cell membranes
Set-up: species or system human
Settings: MDA-MB-468 membranes; listed as [³H] DTG
Experimental: Assays (total volume 100 μl) were performed at room temperature for 4 h with 1–300 nM [^3H] […] Assays were terminated by addition of ice-cold TBS and filtration through glass fibre filters (GF/C, Sigma-Aldrich, Poole, UK) using a cell harvester. Tubes and filter discs were washed with ice-cold TBS (2 x 3 ml) and the filter discs dried under vacuum. Scintillation counting was carried out in ProSafe FC+ cocktail after overnight incubation.

`Cc1ccccc1NC(=N)Nc1ccccc1C` [DTG, 1,3-di-O-tolylguanidine] was tested. Which Bmax did it give?
Its Bmax is 850 ± 200 fmol/mg protein and 850 fmol/mg protein.
